{"source": "the supplement of paper PMC8728848", "binders": {"B1": {"name": "FliC (Clostridium difficile) (protein)", "chain": "MRVNTNVSALIANNQMGRNVNGQSKSMEKLSSGVRIKRAADDAAGLAISEKMRAQIKGLDQAGRNVQDGISVVQTAEGSLEETGNILQRMRTLSLQSANEINNTEEREKIADELTQLKDEIERISSSTEFNGKKLLDGTSSTIRLQVGASYGTNVSGTSNNNNEIKIQLVNTASIMASAGITTASIGSMKAGGTTGTDAAKTMVSSLDAALKSLNSSRAKLGAQQNRLESTQNNLNNTLENVTAAESRIRDTDVASEMVNLSKMNILVQASQSMLAQANQQPQGVLQLLG"}}, "assay_in_all_cases": "glycan array binding signal (z-score within array); higher = stronger binding", "conditions_in_all_cases": "glycan notation: IUPAC condensed, linker removed", "key": {"Gal(b1-3)Gal": {"molecular_target": "Gal(b1-3)Gal", "in_short": "(§1)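 Columns mapping to the same glycan were averaged after glycan names were converted to IUPAC-condensed notation. The data come from 3228 arrays in the Consortium for Functional Glycomics database, limited to those with an available protein sequence. Binding is reported as a within-array Z-score averaged across arrays of one protein sequence and across linkers.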"}, "Gal(b1-3)Gal(b1-4)GlcNAc": {"molecular_target": "Gal(b1-3)Gal(b1-4)GlcNAc", "in_short": "as §1"}, "Gal(b1-3)GalNAc": {"molecular_target": "Gal(b1-3)GalNAc", "in_short": "as §1"}, "[1]": {"molecular_target": "Gal(b1-3)GalNAc(a1-3)[Fuc(a1-2)]Gal(b1-4)Glc", "in_short": "as §1"}, "[2]": {"molecular_target": "Gal(b1-3)GalNAc(a1-3)[Fuc(a1-2)]Gal(b1-4)GlcNAc", "in_short": "as §1"}, "Gal(b1-3)GalNAc(b1-3)Gal": {"molecular_target": "Gal(b1-3)GalNAc(b1-3)Gal", "in_short": "as §1"}, "[3]": {"molecular_target": "Gal(b1-3)GalNAc(b1-3)Gal(a1-4)Gal(b1-4)Glc", "in_short": "as §1"}, "[4]": {"molecular_target": "Gal(b1-3)GalNAc(b1-4)Gal(b1-4)Glc", "in_short": "as §1"}, "[5]": {"molecular_target": "Gal(b1-3)GalNAc(b1-4)[Neu5Ac(a2-3)]Gal(b1-4)Glc", "in_short": "as §1"}, "Gal(b1-3)GlcNAc": {"molecular_target": "Gal(b1-3)GlcNAc", "in_short": "as §1"}, "[6]": {"molecular_target": "Gal(b1-3)GlcNAc(a1-3)Gal(b1-4)GlcNAc", "in_short": "as §1"}, "[7]": {"molecular_target": "Gal(b1-3)GlcNAc(a1-6)Gal(b1-4)GlcNAc", "in_short": "as §1"}, "Gal(b1-3)GlcNAc(b1-2)Man": {"molecular_target": "Gal(b1-3)GlcNAc(b1-2)Man", "in_short": "as §1"}, "[8]": {"molecular_target": "Gal(b1-3)GlcNAc(b1-2)Man(a1-3)[Gal(b1-3)GlcNAc(b1-2)Man(a1-6)]Man(b1-4)GlcNAc(b1-4)GlcNAc", "in_short": "as §1"}, "[9]": {"molecular_target": "Gal(b1-3)GlcNAc(b1-2)Man(a1-3)[Gal(b1-3)GlcNAc(b1-2)Man(a1-6)]Man(b1-4)GlcNAc(b1-4)[Fuc(a1-6)]GlcNAc", "in_short": "as §1"}, "[10]": {"molecular_target": "Gal(b1-3)GlcNAc(b1-2)Man(a1-3)[GlcNAc(b1-4)][Gal(b1-3)GlcNAc(b1-2)Man(a1-6)]Man(b1-4)GlcNAc(b1-4)GlcNAc", "in_short": "as §1"}, "[11]": {"molecular_target": "Gal(b1-3)GlcNAc(b1-2)[Gal(b1-3)GlcNAc(b1-6)]Man(a1-6)[Gal(b1-3)GlcNAc(b1-2)Man(a1-3)]Man(b1-4)GlcNAc(b1-4)GlcNAc", "in_short": "as §1"}, "[12]": {"molecular_target": "Gal(b1-3)GlcNAc(b1-3)Gal(b1-3)GlcNAc", "in_short": "as §1"}, "[13]": {"molecular_target": "Gal(b1-3)GlcNAc(b1-3)Gal(b1-4)Glc", "in_short": "as §1"}, "[14]": {"molecular_target": "Gal(b1-3)GlcNAc(b1-3)Gal(b1-4)GlcNAc", "in_short": "as §1"}, "[15]": {"molecular_target": "Gal(b1-3)GlcNAc(b1-3)Gal(b1-4)GlcNAc(b1-2)Man(a1-3)[Gal(b1-3)GlcNAc(b1-3)Gal(b1-4)GlcNAc(b1-2)Man(a1-6)]Man(b1-4)GlcNAc(b1-4)GlcNAc", "in_short": "as §1"}, "[16]": {"molecular_target": "Gal(b1-3)GlcNAc(b1-3)Gal(b1-4)GlcNAc(b1-2)[Gal(b1-3)GlcNAc(b1-3)Gal(b1-4)GlcNAc(b1-6)]Man(a1-6)[Gal(b1-3)GlcNAc(b1-3)Gal(b1-4)GlcNAc(b1-2)Man(a1-3)]Man(b1-4)GlcNAc(b1-4)[Fuc(a1-6)]GlcNAc", "in_short": "as §1"}, "[17]": {"molecular_target": "Gal(b1-3)GlcNAc(b1-3)Gal(b1-4)GlcNAc(b1-3)Gal(b1-4)GlcNAc(b1-2)[Gal(b1-3)GlcNAc(b1-3)Gal(b1-4)GlcNAc(b1-3)Gal(b1-4)GlcNAc(b1-6)]Man(a1-6)[Gal(b1-3)GlcNAc(b1-3)Gal(b1-4)GlcNAc(b1-3)Gal(b1-4)GlcNAc(b1-2)Man(a1-3)]Man(b1-4)GlcNAc(b1-4)[Fuc(a1-6)]GlcNAc", "in_short": "as §1"}, "[18]": {"molecular_target": "Gal(b1-3)GlcNAc(b1-3)Gal(b1-4)GlcNAc(b1-6)[Gal(b1-3)GlcNAc(b1-3)]Gal(b1-4)Glc", "in_short": "as §1"}, "[19]": {"molecular_target": "Gal(b1-3)GlcNAc(b1-3)Gal(b1-4)[Fuc(a1-3)]GlcNAc", "in_short": "as §1"}, "[20]": {"molecular_target": "Gal(b1-3)GlcNAc(b1-3)Gal(b1-4)[Fuc(a1-3)]GlcNAc(b1-6)[Gal(b1-3)GlcNAc(b1-3)]Gal(b1-4)Glc", "in_short": "as §1"}, "[21]": {"molecular_target": "Gal(b1-3)GlcNAc(b1-3)GalNAc", "in_short": "as §1"}, "[22]": {"molecular_target": "Gal(b1-3)GlcNAc(b1-6)Gal(b1-4)GlcNAc", "in_short": "as §1"}, "[23]": {"molecular_target": "Gal(b1-3)GlcNAc(b1-6)GalNAc", "in_short": "as §1"}, "[24]": {"molecular_target": "Gal(b1-3)GlcNAc(b1-6)[Gal(b1-3)]GalNAc", "in_short": "as §1"}, "Gal(b1-3)GlcNAc6S": {"molecular_target": "Gal(b1-3)GlcNAc6S", "in_short": "as §1"}, "[25]": {"molecular_target": "Gal(b1-3)[Fuc(a1-4)]GlcNAc", "in_short": "as §1"}, "[26]": {"molecular_target": "Gal(b1-3)[Fuc(a1-4)]GlcNAc(b1-2)Man", "in_short": "as §1"}, "[27]": {"molecular_target": "Gal(b1-3)[Fuc(a1-4)]GlcNAc(b1-2)Man(a1-3)[Gal(b1-3)[Fuc(a1-4)]GlcNAc(b1-2)Man(a1-6)]Man(b1-4)GlcNAc(b1-4)[Fuc(a1-6)]GlcNAc", "in_short": "as §1"}, "[28]": {"molecular_target": "Gal(b1-3)[Fuc(a1-4)]GlcNAc(b1-3)Gal(b1-3)[Fuc(a1-4)]GlcNAc", "in_short": "as §1"}, "[29]": {"molecular_target": "Gal(b1-3)[Fuc(a1-4)]GlcNAc(b1-3)Gal(b1-4)[Fuc(a1-3)]GlcNAc", "in_short": "as §1"}, "[30]": {"molecular_target": "Gal(b1-3)[Fuc(a1-4)]GlcNAc(b1-6)GalNAc", "in_short": "as §1"}}, "note": "The other results are listed elsewhere or left out.", "data": [{"binder": "B1", "values": [{"measurement": "glycan array binding signal (z-score)", "setting": "Gal(b1-3)Gal", "value": -0.274}, {"measurement": "glycan array binding signal (z-score)", "setting": "Gal(b1-3)Gal(b1-4)GlcNAc", "value": 1.18}, {"measurement": "glycan array binding signal (z-score)", "setting": "Gal(b1-3)GalNAc", "value": 0.163}, {"measurement": "glycan array binding signal (z-score)", "setting": "[1]", "value": -0.474}, {"measurement": "glycan array binding signal (z-score)", "setting": "[2]", "value": -0.301}, {"measurement": "glycan array binding signal (z-score)", "setting": "Gal(b1-3)GalNAc(b1-3)Gal", "value": -0.119}, {"measurement": "glycan array binding signal (z-score)", "setting": "[3]", "value": -0.531}, {"measurement": "glycan array binding signal (z-score)", "setting": "[4]", "value": -0.33}, {"measurement": "glycan array binding signal (z-score)", "setting": "[5]", "value": 0.636}, {"measurement": "glycan array binding signal (z-score)", "setting": "Gal(b1-3)GlcNAc", "value": -0.124}, {"measurement": "glycan array binding signal (z-score)", "setting": "[6]", "value": -0.032}, {"measurement": "glycan array binding signal (z-score)", "setting": "[7]", "value": -0.584}, {"measurement": "glycan array binding signal (z-score)", "setting": "Gal(b1-3)GlcNAc(b1-2)Man", "value": 0.181}, {"measurement": "glycan array binding signal (z-score)", "setting": "[8]", "value": 0.119}, {"measurement": "glycan array binding signal (z-score)", "setting": "[9]", "value": 0.847}, {"measurement": "glycan array binding signal (z-score)", "setting": "[10]", "value": -0.179}, {"measurement": "glycan array binding signal (z-score)", "setting": "[11]", "value": 0.489}, {"measurement": "glycan array binding signal (z-score)", "setting": "[12]", "value": -0.389}, {"measurement": "glycan array binding signal (z-score)", "setting": "[13]", "value": -0.23}, {"measurement": "glycan array binding signal (z-score)", "setting": "[14]", "value": -0.049}, {"measurement": "glycan array binding signal (z-score)", "setting": "[15]", "value": 1.11}, {"measurement": "glycan array binding signal (z-score)", "setting": "[16]", "value": 0.605}, {"measurement": "glycan array binding signal (z-score)", "setting": "[17]", "value": 0.909}, {"measurement": "glycan array binding signal (z-score)", "setting": "[18]", "value": 0.051}, {"measurement": "glycan array binding signal (z-score)", "setting": "[19]", "value": 0.006}, {"measurement": "glycan array binding signal (z-score)", "setting": "[20]", "value": -0.583}, {"measurement": "glycan array binding signal (z-score)", "setting": "[21]", "value": -0.058}, {"measurement": "glycan array binding signal (z-score)", "setting": "[22]", "value": -0.868}, {"measurement": "glycan array binding signal (z-score)", "setting": "[23]", "value": -0.574}, {"measurement": "glycan array binding signal (z-score)", "setting": "[24]", "value": -0.034}, {"measurement": "glycan array binding signal (z-score)", "setting": "Gal(b1-3)GlcNAc6S", "value": -0.373}, {"measurement": "glycan array binding signal (z-score)", "setting": "[25]", "value": -0.094}, {"measurement": "glycan array binding signal (z-score)", "setting": "[26]", "value": 1.21}, {"measurement": "glycan array binding signal (z-score)", "setting": "[27]", "value": 1.04}, {"measurement": "glycan array binding signal (z-score)", "setting": "[28]", "value": -0.337}, {"measurement": "glycan array binding signal (z-score)", "setting": "[29]", "value": 0.088}, {"measurement": "glycan array binding signal (z-score)", "setting": "[30]", "value": 0.961}]}]}
